Measured values reported in patent US20260234146A1, “Use of Hypoxia-Inducible Factor-Prolyl Hydroxylase Inhibitor (HIF-PHI) in Rare Anemia” (Kind Pharmaceutical, priority 2023, published 2026).
For at least one compound, name, drawing or mass did not settle the structure.

Assays:
MDS model mice = experiment: Effect on MDS model mice (RBC, Hb, HCT); type: in vivo, C57 mice; conditions: 30 mpk, oral gavage, TIW
Protocol: Throughout the experimental stage, animals were housed in cages in an animal room with 24-hour continuous central air conditioning, temperature set at 20-26° C., relative air humidity set at 40-70%, and a 12-hour light/dark cycle. All animals had free access to food and sterilized drinking water. The C57 mice used in the experiment contained three knocked-in genes in their genome: Vav1-Cre, LSL, and c-Myc(T58A/S62E). Only animals positive for all three genes were used in the experiment. Expression of Vav1-Cre can induce cleavage at the LSL site, thereby allowing tTA gene expression. After induction with Doxycycline, tTA can bind to promoter of the c-Myc(T58A/S62E) gene, driving its expression, so that the animals develop an MDS phenotype. When the mice reached approximately 8 weeks of age, modeling commenced. They were fed a special diet (containing 200 mg doxycycline per kg of feed) for 4 weeks. Mice were anesthetized on days 0, 14, and 28, and 70 μl of blood was collected from the orbit to measure RBC, Hb, and HCT levels, confirming successful establishment of the MDS model. […] Collected blood samples were placed in heparin-anticoagulant tubes, and RBC, Hb, and HCT levels in the blood were measured. […]

Townes SCD model mouse = experiment: Effect on SCD anemia mice (RBC, Hb, HCT); type: in vivo; conditions: 30 mpk, 60 mpk, oral gavage, TIW; end of the four-week experiment
Protocol: Throughout the experimental stage, animals were housed in cages in an animal room with 24-hour continuous central air conditioning, temperature set at 20-26° C., relative air humidity set at 40-70%, and a 12-hour light/dark cycle. All animals had free access to food and sterilized drinking water. The animal strain was B6·Cg-Hbb^tm2(HBG1,HBB)Tow/Hbat^ml(HBA)Tow/ShmtJ mice, a Townes SCD model mouse where mouse endogenous hemoglobin is replaced by knocked-in human hemoglobin. Two weeks after birth, mice were ear-punched for identification, and the ear tissue was collected for PCR analysis to determine its genotype. Mice confirmed as B6·Cg-Hbb^tm2(HBG1,HBB)Tow/Hbat^ml(HBA)Tow/ShmtJ were grouped. […] Blood sampling was performed every other week. Mice showing symptoms of anemia were selected for dosing. Animals were randomly divided into groups, 6 animals per group: Vehicle control group (0.1 M meglumine aqueous solution; oral gavage; volume: 6.67 mL/kg), Comp-1 group (30 mpk; oral gavage; volume: 6.67 mL/kg), and EPO group (50 U/30 g body weight; SC injection; MyBioSource, cat. #: MBS650094, erythropoietin alpha). Dosing was administered three times a week (TIW) for 4 consecutive weeks. On days 14 and 28 of dosing, 70 μL of blood was collected from orbit. […] RBC, Hb, and HCT in the blood were measured according to the instrument's operating instructions. […]

fetal hemoglobin = conditions: Nature 2022, vol 610, 783; cited from earlier work
MDS anemia = conditions: versus placebo; news dated May 5, 2023; cited from earlier work

SMILES: Cc1nc(C(=O)NCC(=O)O)c(O)c2ccc(Oc3ccccc3)cc12 [Roxadustat, reference compound]
- Improvement of RBC, Hb, or HCT values (MDS model mice): Neither Roxadustat nor EPO improved RBC, Hb, or HCT values
- Improvement of RBC, Hb, or HCT (Townes SCD model mouse): neither dose of Roxadustat improved RBC, Hb, or HCT
- Induction of fetal hemoglobin at the cellular level (fetal hemoglobin): could induce fetal hemoglobin at the cellular level
- Efficacy in Phase 3 clinical trials for MDS (MDS anemia): not significantly different from placebo
